Our source for the binding values is patent publication US20070271623A1.

Amino acid sequences for entries named in this document (tags omitted). A change or cut given only in a name is not applied to a line headed by its entry.
UniProt P04386: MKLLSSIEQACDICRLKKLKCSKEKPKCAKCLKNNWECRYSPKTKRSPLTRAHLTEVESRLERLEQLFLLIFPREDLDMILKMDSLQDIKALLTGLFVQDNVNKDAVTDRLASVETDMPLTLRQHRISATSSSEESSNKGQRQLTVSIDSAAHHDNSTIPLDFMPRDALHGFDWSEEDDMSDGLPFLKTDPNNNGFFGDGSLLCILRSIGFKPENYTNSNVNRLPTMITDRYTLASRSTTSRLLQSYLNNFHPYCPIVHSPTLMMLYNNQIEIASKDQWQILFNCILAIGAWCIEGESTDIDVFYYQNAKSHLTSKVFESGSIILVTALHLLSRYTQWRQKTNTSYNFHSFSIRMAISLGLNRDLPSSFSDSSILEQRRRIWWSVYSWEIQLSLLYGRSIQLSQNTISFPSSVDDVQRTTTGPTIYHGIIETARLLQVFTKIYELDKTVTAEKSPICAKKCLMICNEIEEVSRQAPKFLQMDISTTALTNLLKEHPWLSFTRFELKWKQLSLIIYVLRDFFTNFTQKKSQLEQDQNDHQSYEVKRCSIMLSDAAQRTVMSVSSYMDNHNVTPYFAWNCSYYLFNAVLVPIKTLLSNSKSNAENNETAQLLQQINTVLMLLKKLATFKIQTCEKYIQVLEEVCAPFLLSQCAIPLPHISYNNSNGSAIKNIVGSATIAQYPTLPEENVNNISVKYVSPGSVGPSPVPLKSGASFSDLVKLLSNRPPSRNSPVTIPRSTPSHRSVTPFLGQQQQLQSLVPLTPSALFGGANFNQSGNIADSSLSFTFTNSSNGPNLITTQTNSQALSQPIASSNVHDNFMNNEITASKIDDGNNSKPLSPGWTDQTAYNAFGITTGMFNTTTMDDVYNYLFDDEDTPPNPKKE

For the test, the target named is T1, MKS1 as interacting prey (AD fusion) (Arabidopsis thaliana) (UniProt Q8LGD5).
T1 sequence: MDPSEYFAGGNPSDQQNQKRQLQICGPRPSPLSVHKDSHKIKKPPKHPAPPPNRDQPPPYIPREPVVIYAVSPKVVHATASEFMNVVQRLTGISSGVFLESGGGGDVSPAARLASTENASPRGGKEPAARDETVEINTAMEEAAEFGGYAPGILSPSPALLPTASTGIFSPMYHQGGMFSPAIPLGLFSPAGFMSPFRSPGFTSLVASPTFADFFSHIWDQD
In words: yeast two-hybrid library screen.

No constants are given. Whether binding was seen depends on the method and setting. Some results given as binding are weak or reduced against the parent protein; the word gives no strength. Where a sequence is shown, tags or fusion partners need not be part of it.

On to “MPK4 as bait (BD fusion) (from UniProt P04386 1-147; Q39024 1-376)”, for which the binding result was “binds”.
